Binding data for 1 molecule are collected here from article PMC4649089, “Urea Unfolding Study of E. coli Alanyl-tRNA Synthetase and Its Monomeric Variants Proves the Role of C-Terminal Domain in Stability” (Journal of Amino Acids, 2015).

Experiment [1] deals with wild type E. coli alanyl-tRNA synthetase (E. coli) (UniProt P00957). The experiment can be described thus: AUC; sedimentation velocity, 4 μM, 28,000 rpm, 20°C, 100 mM Tris-HCl pH 8.0, with 3.5 M urea; both purified.
For experiment [2] the target is unchanged. The experiment can be described thus: AUC; sedimentation velocity, 4 μM, 28,000 rpm, 20°C, 100 mM Tris-HCl pH 8.0, with 8 M urea; both purified.

Results are given in words; binding and its absence hold for the method and conditions named.

B1: wild type E. coli alanyl-tRNA synthetase (enzyme, UniProt P00957 1-876, looked up)
chain: MSKSTAEIRQAFLDFFHSKGHQVVASSSLVPHNDPTLLFTNAGMNQFKDVFLGLDKRNYSRATTSQRCVRAGGKHNDLENVGYTARHHTFFEMLGNFSFGDYFKHDAIQFAWELLTSEKWFALPKERLWVTVYESDDEAYEIWEKEVGIPRERIIRIGDNKGAPYASDNFWQMGDTGPCGPCTEIFYDHGDHIWGGPPGSPEEDGDRYIEIWNIVFMQFNRQADGTMEPLPKPSVDTGMGLERIAAVLQHVNSNYDIDLFRTLIQAVAKVTGATDLSNKSLRVIADHIRSCAFLIADGVMPSNENRGYVLRRIIRRAVRHGNMLGAKETFFYKLVGPLIDVMGSAGEDLKRQQAQVEQVLKTEEEQFARTLERGLALLDEELAKLSGDTLDGETAFRLYDTYGFPVDLTADVCRERNIKVDEAGFEAAMEEQRRRAREASGFGADYNAMIRVDSASEFKGYDHLELNGKVTALFVDGKAVDAINAGQEAVVVLDQTPFYAESGGQVGDKGELKGANFSFAVEDTQKYGQAIGHIGKLAAGSLKVGDAVQADVDEARRARIRLNHSATHLMHAALRQVLGTHVSQKGSLVNDKVLRFDFSHNEAMKPEEIRAVEDLVNTQIRRNLPIETNIMDLEAAKAKGAMALFGEKYDERVRVLSMGDFSTELCGGTHASRTGDIGLFRIISESGTAAGVRRIEAVTGEGAIATVHADSDRLSEVAHLLKGDSNNLADKVRSVLERTRQLEKELQQLKEQAAAQESANLSSKAIDVNGVKLLVSELSGVEPKMLRTMVDDLKNQLGSTIIVLATVVEGKVSLIAGVSKDVTDRVKAGELIGMVAQQVGGKGGGRPDMAQAGGTDAAALPAALASVKGWVSAKLQ
notes: alanyl-tRNA synthetase (alaRS), E. coli, full length, printed as 875 residues per subunit; Clone was a gift from Paul Schimmel; homodimer by sedimentation equilibrium and velocity; also called WT-alaRS; WT; source: E. coli BL21 (DE3), pET28a, purified (Ni-NTA agarose)
Consider B1, for which the binding result is given as “no binding (condition: with 3.5 M urea)” in experiment [1] and “no binding (condition: with 8 M urea)” in experiment [2].
